Experimental findings from PubChem BioAssay AID256 (DTP/NCI, 2004) are described below.

The list is a part of this screen's results and no random one: it gathers tests that were run many times, whatever their T/C, doses with no T/C, and many T/C values between a quarter and a half above the control. Other doses and runs of a compound stand elsewhere. T/C gives the treated animals as a percentage of the vehicle group. Some doses have a count of surviving animals in place of a T/C: the source files T/C as zero there, which appears to mark a toxic dose or a test without result, not a measured value. Some survivor counts are full or nearly so, which does not show that the dose was tolerated: survival well below the control is almost never listed, so the zero probably covers shortened survival too. Survivors were counted at the toxicity check, usually on the fifth day, unless a day is given; later deaths do not show. Schedules are NCI's codes, read here as Q, the interval in days (D) or hours (H), X, the number of doses. For survival time, this PubChem deposit counts one and a half times the control or more as active, and values a quarter to a half above the control carry no call in these data; other NCI protocols may use other cut-offs. Some T/C values carry the count of animals alive at the toxicity check (mostly the fifth day); where none is given, no animal had died by that day.

This experiment relates to CD2F1 mice, L1210 leukemia ip, survival T/C. As to the kind of experiment: NCI In Vivo Anticancer Drug Screen. Data for tumor model L1210 Leukemia (intraperitoneal) in CD2F1 (CDF1) mice. Particulars: higher T/C = longer survival. The procedure, abridged:
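Compound-dosed mice with transplantable tumor versus matched vehicle controls; endpoint ratio T/C reported.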

Setting [1] is: T/C endpoint: mean survival time, dose: 100.0 mg/kg/injection, schedule: Q04DX003 (ip), vehicle: saline with Tween-80.
Where [2] appears, read: T/C endpoint: mean survival time, dose: 200.0 mg/kg/injection, schedule: Q04DX003 (ip), vehicle: saline with Tween-80.
The mark [3] stands for this setting: T/C endpoint: mean survival time, dose: 400.0 mg/kg/injection, schedule: Q04DX003 (ip), vehicle: saline with Tween-80.
[4] abbreviates: T/C endpoint: mean survival time, dose: 100.0 mg/kg/injection, schedule: Q01DX009 (ip), vehicle: saline with Tween-80.

`CSc1nccc2ccccc12`: where the note is “T/C endpoint: mean survival time, dose: 200.0 mg/kg/injection, schedule: Q01DX009 (ip), vehicle: other”, the survivor count is on record as 1 of 6.
Consider `C[n+]1ccc(Nc2ccc(NC(=O)c3ccc(Nc4cc[n+](C)c5ccc(N)cc45)cc3)cc2)cc1`, for which the T/C was 142 % of control (T/C endpoint: mean survival time, dose: 1.0 mg/kg/injection, schedule: Q01DX009 (ip), vehicle: water); 146 % of control (T/C endpoint: median survival time, dose: 0.5 mg/kg/injection, schedule: Q03HX024 (ip), vehicle: water); 140 % of control [9 of 10 alive] (T/C endpoint: median survival time, dose: 1.0 mg/kg/injection, schedule: Q01DX005 (ip), vehicle: water); 139 % of control (T/C endpoint: median survival time, dose: 1.0 mg/kg/injection, schedule: Q01DX009 (ip), vehicle: water); 139 % of control [8 of 10 alive] (T/C endpoint: median survival time, dose: 1.0 mg/kg/injection, schedule: Q03HX008 (ip), vehicle: water); 132 % of control (T/C endpoint: median survival time, dose: 2.0 mg/kg/injection, schedule: Q08DX002 (ip), vehicle: water). The T/C is, setting by setting: (T/C endpoint: median survival time, dose: 4.0 mg/kg/injection, schedule: Q04DX003 (ip), vehicle: water) 142 % of control; (T/C endpoint: median survival time, dose: 8.0 mg/kg/injection, schedule: Q01DX001 (ip), vehicle: water) 127 % of control [8 of 10 alive]; (T/C endpoint: median survival time, dose: 32.0 mg/kg/injection, schedule: Q01DX001 (sc), vehicle: water) 143 % of control. Moreover, the survivor count (T/C endpoint: mean survival time, dose: 8.0 mg/kg/injection, schedule: Q01DX009 (ip), vehicle: water) is recorded as 3 of 10; the survivor count (T/C endpoint: mean survival time, dose: 16.0 mg/kg/injection, schedule: Q01DX009 (ip), vehicle: water) is 0 of 10; the survivor count (T/C endpoint: mean survival time, dose: 32.0 mg/kg/injection, schedule: Q01DX009 (ip), vehicle: water) is 0 of 10; the survivor count (T/C endpoint: median survival time, dose: 8.0 mg/kg/injection, schedule: Q01DX005 (ip), vehicle: water) was 4 of 10; the survivor count (T/C endpoint: median survival time, dose: 8.0 mg/kg/injection, schedule: Q03HX008 (ip), vehicle: water) is given as 6 of 10; the survivor count (T/C endpoint: median survival time, dose: 8.0 mg/kg/injection, schedule: Q03HX016 (ip), vehicle: water) was 5 of 10. For the same compound, the survivor count (T/C endpoint: median survival time, dose: 8.0 mg/kg/injection, schedule: Q03HX024 (ip), vehicle: water) is listed as 3 of 10; the survivor count (T/C endpoint: median survival time, dose: 8.0 mg/kg/injection, schedule: Q08DX002 (ip), vehicle: water) is on record as 4 of 10; the survivor count (T/C endpoint: median survival time, dose: 16.0 mg/kg/injection, schedule: Q01DX001 (ip), vehicle: water) is listed as 0 of 10; the survivor count (T/C endpoint: median survival time, dose: 16.0 mg/kg/injection, schedule: Q01DX005 (ip), vehicle: water) is 0 of 10; the survivor count (T/C endpoint: median survival time, dose: 16.0 mg/kg/injection, schedule: Q01DX009 (ip), vehicle: water) is on record as 2 of 10; the survivor count (T/C endpoint: median survival time, dose: 16.0 mg/kg/injection, schedule: Q04DX003 (ip), vehicle: water) was 2 of 10. The survivor count by setting is: (T/C endpoint: median survival time, dose: 16.0 mg/kg/injection, schedule: Q08DX002 (ip), vehicle: water) 1 of 10; (T/C endpoint: median survival time, dose: 32.0 mg/kg/injection, schedule: Q01DX001 (ip), vehicle: water) 0 of 10; (T/C endpoint: median survival time, dose: 32.0 mg/kg/injection, schedule: Q04DX003 (ip), vehicle: water) 0 of 10; (T/C endpoint: median survival time, dose: 32.0 mg/kg/injection, schedule: Q08DX002 (ip), vehicle: water) 0 of 10; (T/C endpoint: median survival time, dose: 64.0 mg/kg/injection, schedule: Q01DX001 (ip), vehicle: water) 0 of 10; (T/C endpoint: median survival time, dose: 64.0 mg/kg/injection, schedule: Q04DX003 (ip), vehicle: water) 0 of 10. The survivor count (T/C endpoint: median survival time, dose: 64.0 mg/kg/injection, schedule: Q08DX002 (ip), vehicle: water) was 0 of 10.
On to `CNCC(O)c1ccc(O)cc1` (stereo unspecified), for which the survivor count (T/C endpoint: mean survival time, dose: 400.0 mg/kg/injection, schedule: Q01DX009 (ip), vehicle: saline) is on record as 3 of 6.
With `N=c1ccn(C2OC(CO)C(O)C2O)c(=O)n1O` (stereo unspecified), the T/C reads like this: (T/C endpoint: mean survival time, dose: 32.0 mg/kg/injection, schedule: Q01DX008 (oral), vehicle: saline) 125 % of control; (T/C endpoint: mean survival time, dose: 64.0 mg/kg/injection, schedule: Q01DX008 (oral), vehicle: saline) 145 % of control; (T/C endpoint: mean survival time, dose: 128.0 mg/kg/injection, schedule: Q01DX009 (oral), vehicle: saline) 126 % of control; (T/C endpoint: mean survival time, dose: 128.0 mg/kg/injection, schedule: Q04DX003 (ip), vehicle: saline) 125 % of control; (T/C endpoint: mean survival time, dose: 256.0 mg/kg/injection, schedule: Q01DX009 (oral), vehicle: saline) 131 % of control; (T/C endpoint: mean survival time, dose: 256.0 mg/kg/injection, schedule: Q04DX003 (ip), vehicle: saline) 133 % of control. Also, the T/C (T/C endpoint: mean survival time, dose: 512.0 mg/kg/injection, schedule: Q04DX003 (oral), vehicle: saline) was 135 % of control.
Consider `O=C1N(Cc2ccccc2)CCS1(=O)=O`, for which the survivor count (T/C endpoint: mean survival time, dose: 300.0 mg/kg/injection, schedule: Q01DX001 (ip), vehicle: other) is on record as 1 of 6.
Regarding `CCN(CC)Cc1ccccc1COC(=O)c1ccccc1`, under “T/C endpoint: mean survival time, dose: 400.0 mg/kg/injection, schedule: Q04DX002 (ip), vehicle: saline”, the survivor count is recorded as 0 of 3.
For the compound `CCCCCCCCCCCCNC(=O)C[N+](C)(C)Cc1ccc2c(c1)CCCC2`, the survivor count (T/C endpoint: mean survival time, dose: 20.0 mg/kg/injection, schedule: Q04DX003 (ip), vehicle: saline with Tween-80) is 5 of 6; the survivor count under setting [1] is on record as 0 of 6; the survivor count under setting [2] is on record as 0 of 6; the survivor count under setting [3] is reported as 0 of 6.
As for `CN(C)c1ncnc(-c2ccncc2)n1`, for the setting “T/C endpoint: mean survival time, dose: 400.0 mg/kg/injection, schedule: Q04DX002 (ip), vehicle: saline with Tween-80”, the survivor count is reported as 0 of 3.
Consider `COC(=Nc1ccccc1)SSC(C)C`, for which the survivor count runs as follows: under setting [4], 5 of 10; (T/C endpoint: mean survival time, dose: 200.0 mg/kg/injection, schedule: Q01DX009 (ip), vehicle: saline with Tween-80) 0 of 10.
For `O=C1C=CC(=O)c2c(O)cccc21`, the survivor count by setting is: (T/C endpoint: mean survival time, dose: 12.5 mg/kg/injection, schedule: Q01DX009 (ip), vehicle: saline with Tween-80) 0 of 6; (T/C endpoint: mean survival time, dose: 25.0 mg/kg/injection, schedule: Q04DX003 (ip), vehicle: saline with Tween-80) 5 of 6; (T/C endpoint: mean survival time, dose: 50.0 mg/kg/injection, schedule: Q04DX003 (ip), vehicle: saline with Tween-80) 4 of 6; under setting [1], 4 of 6; under setting [2], 4 of 6; under setting [3], 0 of 6.
Take `NC(N)=N/N=C\c1ccc2ccccc2c1`: under “T/C endpoint: mean survival time, dose: 100.0 mg/kg/injection, schedule: Q04DX002 (ip), vehicle: saline with Tween-80”, the survivor count is given as 0 of 3.
Take `CCCC(C#N)OC(=O)c1ccccc1` (stereo unspecified): the survivor count is on record as 3 of 6 under setting [4], 0 of 6 under setting [2] and 0 of 6 under setting [3].
